In the supplement of paper PMC7661543:
± gives the standard deviation of the averaged measurements. The effect of the compound repeats well; differences between the knockouts mostly do not.

System: BT-20
Assay: relative cell number vs DMSO control (72 h) (% of DMSO); higher = less growth inhibition (more cells)
Method: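 QMAP-Seq: a pool of 5 breast cancer cell lines (ZR-75-1, SKBR3, HCC-38, MDA-MB-231, BT-20), each carrying 12 doxycycline-inducible Cas9 sgRNA perturbations (11 knockouts plus non-targeting sgNT), was treated with compounds for 72 h at four 10-fold doses (10 nM-10 uM or 1 nM-1 uM range). Barcodes were amplified and sequenced, and cell number was interpolated from 293T spike-in standard curves. The result is expressed as % of the median of DMSO wells. Two biological replicates.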

CC/C(=C(\c1ccc(O)cc1)c1ccc(OCCN(C)C)cc1)c1ccccc1 [4-Hydroxytamoxifen]
Details | relative cell number
sgRNA knockout: sgATF3, 10 nM | 80.7 ± 6.5
sgRNA knockout: sgATF3, 100 nM | 98.9 ± 14
sgRNA knockout: sgATF3, 1000 nM | 98.9 ± 2.3
sgRNA knockout: sgATF3, 10000 nM | 72.7 ± 12
sgRNA knockout: sgATF4, 10 nM | 101 ± 19
sgRNA knockout: sgATF4, 100 nM | 94.5 ± 7.4
sgRNA knockout: sgATF4, 1000 nM | 99.7 ± 4.9
sgRNA knockout: sgATF4, 10000 nM | 87.2 ± 3.7
sgRNA knockout: sgATF6, 10 nM | 96.2 ± 15
sgRNA knockout: sgATF6, 100 nM | 82.47 ± 0.2
sgRNA knockout: sgATF6, 1000 nM | 96.1 ± 5.5
sgRNA knockout: sgATF6, 10000 nM | 84.1 ± 27
sgRNA knockout: sgATG7, 10 nM | 103.4 ± 0.18
sgRNA knockout: sgATG7, 100 nM | 82.7 ± 15
sgRNA knockout: sgATG7, 1000 nM | 81.9 ± 4.1
sgRNA knockout: sgATG7, 10000 nM | 77.8 ± 5.6
sgRNA knockout: sgERN1, 10 nM | 109 ± 20
sgRNA knockout: sgERN1, 100 nM | 89.7 ± 2.7
sgRNA knockout: sgERN1, 1000 nM | 105 ± 9.5
sgRNA knockout: sgERN1, 10000 nM | 80.5 ± 12
sgRNA knockout: sgHSF1, 10 nM | 94.8 ± 8
sgRNA knockout: sgHSF1, 100 nM | 87.9 ± 10
sgRNA knockout: sgHSF1, 1000 nM | 96.7 ± 9.7
sgRNA knockout: sgHSF1, 10000 nM | 86.3 ± 13
sgRNA knockout: sgHSF2, 10 nM | 91.4 ± 24
sgRNA knockout: sgHSF2, 100 nM | 79.7 ± 4.3
sgRNA knockout: sgHSF2, 1000 nM | 92.8 ± 22
sgRNA knockout: sgHSF2, 10000 nM | 73.6 ± 13
sgRNA knockout: sgKEAP1, 10 nM | 99.7 ± 3.1
sgRNA knockout: sgKEAP1, 100 nM | 84.1 ± 2.1
sgRNA knockout: sgKEAP1, 1000 nM | 98.9 ± 7.6
sgRNA knockout: sgKEAP1, 10000 nM | 87.2 ± 12
sgRNA knockout: sgNFE2L2, 10 nM | 92.7 ± 17
sgRNA knockout: sgNFE2L2, 100 nM | 90.8 ± 8.4
sgRNA knockout: sgNFE2L2, 1000 nM | 98 ± 8.7
sgRNA knockout: sgNFE2L2, 10000 nM | 93.1 ± 4.1
sgRNA knockout: sgSLC35F2, 10 nM | 84.6 ± 6.2
sgRNA knockout: sgSLC35F2, 100 nM | 90.7 ± 6.5
sgRNA knockout: sgSLC35F2, 1000 nM | 89.5 ± 3.1
sgRNA knockout: sgSLC35F2, 10000 nM | 77.4 ± 17
sgRNA knockout: sgXBP1, 10 nM | 99.8 ± 6
sgRNA knockout: sgXBP1, 100 nM | 92.6 ± 16
sgRNA knockout: sgXBP1, 1000 nM | 97.5 ± 6.6
sgRNA knockout: sgXBP1, 10000 nM | 81.4 ± 15

CN1CCN(c2ccc(C(=O)Nc3n[nH]c4ccc(Cc5cc(F)cc(F)c5)cc34)c(NC3CCOCC3)c2)CC1 [Entrectinib]
Details | relative cell number
sgRNA knockout: sgATF3, 1 nM | 90.4 ± 11
sgRNA knockout: sgATF3, 10 nM | 99.9 ± 14
sgRNA knockout: sgATF3, 100 nM | 96.9 ± 4.8
sgRNA knockout: sgATF3, 1000 nM | 88.8 ± 7.4
sgRNA knockout: sgATF4, 1 nM | 89.1 ± 12
sgRNA knockout: sgATF4, 10 nM | 97.1 ± 13
sgRNA knockout: sgATF4, 100 nM | 91.7 ± 27
sgRNA knockout: sgATF4, 1000 nM | 95.2 ± 2
sgRNA knockout: sgATF6, 1 nM | 99.3 ± 5
sgRNA knockout: sgATF6, 10 nM | 89.5 ± 2.8
sgRNA knockout: sgATF6, 100 nM | 87.6 ± 0.6
sgRNA knockout: sgATF6, 1000 nM | 90.2 ± 33
sgRNA knockout: sgATG7, 1 nM | 93 ± 13
sgRNA knockout: sgATG7, 10 nM | 114 ± 22
sgRNA knockout: sgATG7, 100 nM | 99.6 ± 21
sgRNA knockout: sgATG7, 1000 nM | 108 ± 4.4
sgRNA knockout: sgERN1, 1 nM | 88.7 ± 1.7
sgRNA knockout: sgERN1, 10 nM | 111 ± 9.8
sgRNA knockout: sgERN1, 100 nM | 84.2 ± 14
sgRNA knockout: sgERN1, 1000 nM | 95.16 ± 0.42
sgRNA knockout: sgHSF1, 1 nM | 92.1 ± 2.9
sgRNA knockout: sgHSF1, 10 nM | 85.2 ± 7.4
sgRNA knockout: sgHSF1, 100 nM | 93.6 ± 18
sgRNA knockout: sgHSF1, 1000 nM | 90.3 ± 16
sgRNA knockout: sgHSF2, 1 nM | 86.6 ± 7
sgRNA knockout: sgHSF2, 10 nM | 103 ± 4.1
sgRNA knockout: sgHSF2, 100 nM | 92.7 ± 18
sgRNA knockout: sgHSF2, 1000 nM | 87.66 ± 0.15
sgRNA knockout: sgKEAP1, 1 nM | 85.1 ± 2.5
sgRNA knockout: sgKEAP1, 10 nM | 103 ± 3.8
sgRNA knockout: sgKEAP1, 100 nM | 86 ± 11
sgRNA knockout: sgKEAP1, 1000 nM | 85.3 ± 13
sgRNA knockout: sgNFE2L2, 1 nM | 90.8 ± 25
sgRNA knockout: sgNFE2L2, 10 nM | 98.5 ± 2.7
sgRNA knockout: sgNFE2L2, 100 nM | 98.5 ± 11
sgRNA knockout: sgNFE2L2, 1000 nM | 97.7 ± 4.4
sgRNA knockout: sgSLC35F2, 1 nM | 96.6 ± 3.4
sgRNA knockout: sgSLC35F2, 10 nM | 99.4 ± 6.6
sgRNA knockout: sgSLC35F2, 100 nM | 102 ± 10
sgRNA knockout: sgSLC35F2, 1000 nM | 95.6 ± 2.6
sgRNA knockout: sgXBP1, 1 nM | 96.5 ± 2
sgRNA knockout: sgXBP1, 10 nM | 99 ± 6.2
sgRNA knockout: sgXBP1, 100 nM | 88.5 ± 3.3
sgRNA knockout: sgXBP1, 1000 nM | 96.8 ± 4.2

CC(C)(C#N)c1ccc(N2C(=O)OCc3cnc4ccc(-c5cnc6ccccc6c5)cc4c32)cc1
Details | relative cell number
sgRNA knockout: sgATF3, 10 nM | 101 ± 19
sgRNA knockout: sgATF3, 100 nM | 96.9 ± 9.4
sgRNA knockout: sgATF3, 1000 nM | 87 ± 4.4
sgRNA knockout: sgATF3, 10000 nM | 49.8 ± 12
sgRNA knockout: sgATF4, 10 nM | 107 ± 9.7
sgRNA knockout: sgATF4, 100 nM | 104 ± 7.5
sgRNA knockout: sgATF4, 1000 nM | 84.4 ± 3.8
sgRNA knockout: sgATF4, 10000 nM | 51.9 ± 3.2
sgRNA knockout: sgATF6, 10 nM | 98.3 ± 21
sgRNA knockout: sgATF6, 100 nM | 97.3 ± 1.6
sgRNA knockout: sgATF6, 1000 nM | 86.4 ± 16
sgRNA knockout: sgATF6, 10000 nM | 51.9 ± 6.7
sgRNA knockout: sgATG7, 10 nM | 91.7 ± 1.4
sgRNA knockout: sgATG7, 100 nM | 103 ± 8.5
sgRNA knockout: sgATG7, 1000 nM | 102 ± 8.6
sgRNA knockout: sgATG7, 10000 nM | 52.3 ± 2.6
sgRNA knockout: sgERN1, 10 nM | 108 ± 27
sgRNA knockout: sgERN1, 100 nM | 102 ± 4.3
sgRNA knockout: sgERN1, 1000 nM | 83 ± 1.7
sgRNA knockout: sgERN1, 10000 nM | 48.8 ± 9.4
sgRNA knockout: sgHSF1, 10 nM | 97.4 ± 29
sgRNA knockout: sgHSF1, 100 nM | 105 ± 11
sgRNA knockout: sgHSF1, 1000 nM | 86.6 ± 6.5
sgRNA knockout: sgHSF1, 10000 nM | 53.5 ± 5.4
sgRNA knockout: sgHSF2, 10 nM | 97 ± 17
sgRNA knockout: sgHSF2, 100 nM | 83.6 ± 6.1
sgRNA knockout: sgHSF2, 1000 nM | 80.04 ± 0.15
sgRNA knockout: sgHSF2, 10000 nM | 44.6 ± 13
sgRNA knockout: sgKEAP1, 10 nM | 105 ± 9.9
sgRNA knockout: sgKEAP1, 100 nM | 86.9 ± 6.8
sgRNA knockout: sgKEAP1, 1000 nM | 74.7 ± 9.8
sgRNA knockout: sgKEAP1, 10000 nM | 46.2 ± 9.1
sgRNA knockout: sgNFE2L2, 10 nM | 99.1 ± 4
sgRNA knockout: sgNFE2L2, 100 nM | 100 ± 1.5
sgRNA knockout: sgNFE2L2, 1000 nM | 94.83 ± 0.76
sgRNA knockout: sgNFE2L2, 10000 nM | 45.7 ± 18
sgRNA knockout: sgSLC35F2, 10 nM | 102 ± 33
sgRNA knockout: sgSLC35F2, 100 nM | 112 ± 24
sgRNA knockout: sgSLC35F2, 1000 nM | 73.4 ± 4.6
sgRNA knockout: sgSLC35F2, 10000 nM | 50.1 ± 16
sgRNA knockout: sgXBP1, 10 nM | 108 ± 20
sgRNA knockout: sgXBP1, 100 nM | 95 ± 10
sgRNA knockout: sgXBP1, 1000 nM | 91.1 ± 7.3
sgRNA knockout: sgXBP1, 10000 nM | 53 ± 11
